Measurements as given in patent US8008007B2, “S-adenosyl-L-methionine analogs with extended activated groups for transfer by methyltransferases” (RWTH Aachen, priority 2005, dated 2011).
Some of these results come from one statement about several compounds together. At least one compound was matched to its structure with a doubt left.

What follows are compounds tested on M.BcnIB (assay: DNA protection assay with M.BcnIB (wild-type) on phage lambda DNA). Settings: 1.10 μg phage lambda DNA, cofactor 300 μM, 37° C. for 4 h, then R.BcnI; pH 7.4 (pH 6.0 for cofactor 6).
Format: biochemical
Excerpt: Transfer kinetics of the activated ethyl (—CH2CH3), propyl (—CH2CH2CH3), prop-2-enyl (—CH2CH═CH2), prop-2-ynyl (—CH2C≡CH), but-2-ynyl (—CH2C≡CCH3), pent-2-ynyl (—CH2C≡CCH2CH3) and benzyl group (—CH2C6H5) from cofactors 3-9 by the DNA adenine-N6 methyltransferase M.TaqI and its variant V21 G, the DNA cytosine-C5 methyltransferase M.HhaI and its variant Q82A, the DNA cytosine-N4 methyltransferase M.BcnIB and the DNA cytosine-C5 methyltransferase M.SssI variant Q142A to phage lambda DNA (48502 base pairs) were investigated using a DNA protection assay. This assay makes use of the fact that DNA methyltransferase-catalyzed modifications of nucleobases within the recognition sequences of restriction endonucleases can protect the DNA against fragmentation by these enzymes. […] Unmodified DNA containing 5′-TCGA-3′ recognition sequences is readily fragmentated by R.TaqI. After DNA modification by M.TaqI in the presence of a cofactor with an activated group Z—R modified 5′-TCGA^Z—R-3′ sequences are formed and, as a result, R.TaqI is unable to fragment the modified DNA. Occurrence of fragmentation is then analyzed by agarose gel electrophoresis.
By varying the amounts of DNA methyltransferase, this assay is used to investigate the enzymatic activities of the different DNA methyltransferases with cofactors 3-9 and compare them to the enzymatic activities with the natural cofactor 1. The minimal amount of DNA methyltransferase needed to fully protect 1 μg of phage lambda DNA against restriction endonuclease fragmentation under the given experimental conditions is defined as one enzyme unit (u).
Afterwards the reactions were stopped by heating to 80° C. for 10 min. A solution (10 μL) containing R.BcnI restriction endonuclease (12 u, MBI Fermentas), bovine serum albumin (0.1 mg/mL) and buffer (33 mM Tris acetate, 66 mM potassium acetate, 26.5 mM magnesium chloride, pH 7.9) was added to each dilution and incubation at 37° C. was continued for 1 h. […] Parallel control experiments were performed with phage lambda DNA in the absence of M.BcnIB and in the presence of M.BcnIB (144 ng).
With `CC[S+](CCC(N)C(=O)O)CC1OC(n2cnc3c(N)ncnc32)C(O)C1O` (stereo not drawn) [Cofactor 3] the “specific activity of M.BcnIB with the cofactor” value (“specific activity of M.BcnIB” for short) was < 7 u/μg.
For `CCC[S+](CCC(N)C(=O)O)CC1OC(n2cnc3c(N)ncnc32)C(O)C1O` (stereo not drawn) [Cofactor 4], the “specific activity of M.BcnIB” value was < 7 u/μg.
For `C=CC[S+](CCC(N)C(=O)O)CC1OC(n2cnc3c(N)ncnc32)C(O)C1O` (stereo not drawn) [Cofactor 5], the “specific activity of M.BcnIB” value was < 7 u/μg.
